Here are results for two molecules from paper PMC12732451, “Functional Coupling of Calcium-Sensing Receptor and Polycystin-2 in Renal Epithelial Cells: Physiological Role and Potential Therapeutic Target in Polycystic Kidney Disease” (International Journal of Molecular Sciences, 2025).

For assay [1], the target named is T1, Polycystin 2 (PC2), mouse, endogenous in kidney (mouse (endogenous in kidney)) (UniProt O35245).
T1 sequence: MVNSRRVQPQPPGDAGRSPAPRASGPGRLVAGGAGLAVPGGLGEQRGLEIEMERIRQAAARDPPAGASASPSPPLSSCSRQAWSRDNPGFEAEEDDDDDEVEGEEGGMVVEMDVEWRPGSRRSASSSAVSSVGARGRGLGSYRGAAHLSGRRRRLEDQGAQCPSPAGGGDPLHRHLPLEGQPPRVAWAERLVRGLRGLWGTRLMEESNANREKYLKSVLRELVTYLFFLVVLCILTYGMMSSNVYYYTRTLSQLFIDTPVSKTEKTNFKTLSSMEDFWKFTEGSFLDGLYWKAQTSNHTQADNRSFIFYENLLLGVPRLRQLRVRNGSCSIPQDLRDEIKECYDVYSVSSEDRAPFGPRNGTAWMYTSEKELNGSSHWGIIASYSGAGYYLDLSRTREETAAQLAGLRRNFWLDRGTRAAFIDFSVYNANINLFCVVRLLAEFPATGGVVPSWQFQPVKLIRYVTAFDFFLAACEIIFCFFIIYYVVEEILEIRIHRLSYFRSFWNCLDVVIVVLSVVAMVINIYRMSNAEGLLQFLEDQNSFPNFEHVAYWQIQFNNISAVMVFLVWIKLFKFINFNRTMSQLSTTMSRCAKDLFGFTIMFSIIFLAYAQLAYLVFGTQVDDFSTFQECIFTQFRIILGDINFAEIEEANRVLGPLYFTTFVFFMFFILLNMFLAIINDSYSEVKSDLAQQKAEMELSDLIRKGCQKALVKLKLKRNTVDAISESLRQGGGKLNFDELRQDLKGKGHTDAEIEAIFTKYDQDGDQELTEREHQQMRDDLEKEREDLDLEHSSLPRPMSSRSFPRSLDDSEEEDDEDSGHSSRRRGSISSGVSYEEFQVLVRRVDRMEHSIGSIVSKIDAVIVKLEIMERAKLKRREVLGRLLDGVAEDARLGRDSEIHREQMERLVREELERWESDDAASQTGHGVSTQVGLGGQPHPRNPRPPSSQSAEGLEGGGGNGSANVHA
The assay can be described thus: co-IP; mouse kidney homogenates; immunoprecipitation of PC2, blot for CaSR.

In assay [2] the target is T2, Polycystin 2 (PC2), human, endogenous in PTEC (human (endogenous in PTEC)) (UniProt Q13563).
T2 sequence: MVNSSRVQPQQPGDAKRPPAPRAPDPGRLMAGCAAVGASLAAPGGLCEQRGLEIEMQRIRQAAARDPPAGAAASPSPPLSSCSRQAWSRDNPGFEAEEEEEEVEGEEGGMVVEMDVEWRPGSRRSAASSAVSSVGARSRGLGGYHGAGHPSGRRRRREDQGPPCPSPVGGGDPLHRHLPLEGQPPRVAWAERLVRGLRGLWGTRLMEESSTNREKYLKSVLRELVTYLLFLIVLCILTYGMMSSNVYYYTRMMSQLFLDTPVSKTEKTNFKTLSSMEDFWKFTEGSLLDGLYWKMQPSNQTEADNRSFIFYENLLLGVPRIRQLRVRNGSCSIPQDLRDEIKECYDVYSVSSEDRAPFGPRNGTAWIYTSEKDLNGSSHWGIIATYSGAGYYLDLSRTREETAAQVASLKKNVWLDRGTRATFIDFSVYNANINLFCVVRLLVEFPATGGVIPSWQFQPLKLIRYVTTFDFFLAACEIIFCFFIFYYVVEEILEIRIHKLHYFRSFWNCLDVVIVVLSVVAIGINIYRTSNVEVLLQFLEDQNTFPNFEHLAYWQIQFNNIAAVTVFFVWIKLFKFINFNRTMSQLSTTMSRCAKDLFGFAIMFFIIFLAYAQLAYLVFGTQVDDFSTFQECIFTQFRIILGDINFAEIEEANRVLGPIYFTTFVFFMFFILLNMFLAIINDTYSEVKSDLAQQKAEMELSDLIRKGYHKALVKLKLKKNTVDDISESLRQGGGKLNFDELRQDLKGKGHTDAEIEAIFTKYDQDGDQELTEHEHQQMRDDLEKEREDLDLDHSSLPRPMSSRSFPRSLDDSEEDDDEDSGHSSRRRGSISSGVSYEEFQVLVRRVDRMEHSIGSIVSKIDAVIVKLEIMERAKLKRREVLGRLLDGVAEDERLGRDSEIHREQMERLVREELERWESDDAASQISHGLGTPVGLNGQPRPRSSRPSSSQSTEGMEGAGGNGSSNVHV
The experiment in a line: proximity ligation; DuoLink In Situ, confluent monolayer of PTEC wt, fixed (4% paraformaldehyde) and permeabilized (0.1% SDS); mouse anti-CaSR and rabbit anti-PC2; distances < 40 nm.

Assay [3] addresses T2, Polycystin 2 (PC2), human, endogenous in PTEC (human (endogenous in PTEC)). The assay can be described thus: co-IP; PTEC wt and PC1KD (PKD1 knocked down) lysates (1% Triton X-100, 150 mM NaCl, 25 mM Hepes pH 7.4); anti-PC2 antibodies coupled to protein A-Sepharose, overnight; immunoblot with anti-CaSR and anti-PC2.

Results are given in words; binding and its absence hold for the method and conditions named. Binding seen in cells or lysates may run through a third protein. Some results given as binding are weak or reduced against the parent protein; the word gives no strength.

B1: Calcium Sensing Receptor (CaSR), mouse, endogenous in kidney (receptor, UniProt Q9QY96 20-1079)
chain: YGPDQRAQKKGDIILGGLFPIHFGVAAKDQDLKSRPESVECIRYNFRGFRWLQAMIFAIEEINSSPALLPNMTLGYRIFDTCNTVSKALEATLSFVAQNKIDSLNLDEFCNCSEHIPSTIAVVGATGSGVSTAVANLLGLFYIPQVSYASSSRLLSNKNQFKSFLRTIPNDEHQATAMADIIEYFRWNWVGTIAADDDYGRPGIEKFREEAEERDICIDFSELISQYSDEEEIQQVVEVIQNSTAKVIVVFSSGPDLEPLIKEIVRRNITGRIWLASEAWASSSLIAMPEYFHVVGGTIGFGLKAGQIPGFREFLQKVHPRKSVHNGFAKEFWEETFNCHLQDGAKGPLPVDTFVRSHEEGGNRLLNSSTAFRPLCTGDENINSVETPYMDYEHLRISYNVYLAVYSIAHALQDIYTCLPGRGLFTNGSCADIKKVEAWQVLKHLRHLNFTNNMGEQVTFDECGDLVGNYSIINWHLSPEDGSIVFKEVGYYNVYAKKGERLFINEGKILWSGFSREVPFSNCSRDCQAGTRKGIIEGEPTCCFECVECPDGEYSGETDASACDKCPDDFWSNENHTSCIAKEIEFLAWTEPFGIALTLFAVLGIFLTAFVLGVFIKFRNTPIVKATNRELSYLLLFSLLCCFSSSLFFIGEPQDWTCRLRQPAFGISFVLCISCILVKTNRVLLVFEAKIPTSFHRKWWGLNLQFLLVFLCTFMQIVICIIWLYTAPPSSYRNHELEDEIIFITCHEGSLMALGSLIGYTCLLAAICFFFAFKSRKLPENFNEAKFITFSMLIFFIVWISFIPAYASTYGKFVSAVEVIAILAASFGLLACIFFNKVYIILFKPSRNTIEEVRSSTAAHAFKVAARATLRRPNISRKRSSSLGGSTGSIPSSSISSKSNSEDRFPQPERQKQQQPLALTQQEQQQQPLTLQPQQQQQPQQPRCKQKVIFGSGTVTFSLSFDEPQKNAMAHRNSMRQNSLEAQKSNDTLNRHQALLPLQCAEADSEMTIQETGLQGPMVGDHQPEIESPDEMSPALVMSTSRSFVISGGGSSVTENILHS
Regarding B1, in assay [1], the binding result is “binds”.

B2: Calcium Sensing Receptor (CaSR), human, endogenous in PTEC (receptor, human (endogenous in PTEC), UniProt P41180 20-1078, looked up)
chain: YGPDQRAQKKGDIILGGLFPIHFGVAAKDQDLKSRPESVECIRYNFRGFRWLQAMIFAIEEINSSPALLPNLTLGYRIFDTCNTVSKALEATLSFVAQNKIDSLNLDEFCNCSEHIPSTIAVVGATGSGVSTAVANLLGLFYIPQVSYASSSRLLSNKNQFKSFLRTIPNDEHQATAMADIIEYFRWNWVGTIAADDDYGRPGIEKFREEAEERDICIDFSELISQYSDEEEIQHVVEVIQNSTAKVIVVFSSGPDLEPLIKEIVRRNITGKIWLASEAWASSSLIAMPQYFHVVGGTIGFALKAGQIPGFREFLKKVHPRKSVHNGFAKEFWEETFNCHLQEGAKGPLPVDTFLRGHEESGDRFSNSSTAFRPLCTGDENISSVETPYIDYTHLRISYNVYLAVYSIAHALQDIYTCLPGRGLFTNGSCADIKKVEAWQVLKHLRHLNFTNNMGEQVTFDECGDLVGNYSIINWHLSPEDGSIVFKEVGYYNVYAKKGERLFINEEKILWSGFSREVPFSNCSRDCLAGTRKGIIEGEPTCCFECVECPDGEYSDETDASACNKCPDDFWSNENHTSCIAKEIEFLSWTEPFGIALTLFAVLGIFLTAFVLGVFIKFRNTPIVKATNRELSYLLLFSLLCCFSSSLFFIGEPQDWTCRLRQPAFGISFVLCISCILVKTNRVLLVFEAKIPTSFHRKWWGLNLQFLLVFLCTFMQIVICVIWLYTAPPSSYRNQELEDEIIFITCHEGSLMALGFLIGYTCLLAAICFFFAFKSRKLPENFNEAKFITFSMLIFFIVWISFIPAYASTYGKFVSAVEVIAILAASFGLLACIFFNKIYIILFKPSRNTIEEVRCSTAAHAFKVAARATLRRSNVSRKRSSSLGGSTGSTPSSSISSKSNSEDPFPQPERQKQQQPLALTQQEQQQQPLTLPQQQRSQQQPRCKQKVIFGSGTVTFSLSFDEPQKNAMAHRNSTHQNSLEAQKSSDTLTRHEPLLPLQCGETDLDLTVQETGLQGPVGGDQRPEVEDPEELSPALVVSSSQSFVISGGGSTVTENVVNS
notes: Calcium sensing receptor (CaSR), human, endogenous in PTEC; no construct, no residues stated; Endogenous protein, detected with a monoclonal anti-CaSR antibody (Sigma C0493); also called extracellular calcium sensing receptor
Turning to B2, the binding entry in assay [2] and in assay [3] was “binds” in each case.
